Results reported in US10159726B2, “Peptides, combination of peptides and scaffolds for use in immunotherapeutic treatment of various cancers” (Immatics Biotechnologies GmbH, priority 2015, dated 2018).

What was measured:
Set-up in all cases: species or system human
[1] = tested on: HLA-A*24 molecules of primary tumors; experiment: Identification and relative LC-MS quantitation of HLA-A*24 tumor-associated peptides presented on tissue samples (XPRESIDENT presentation profiles); settings: for ENTITIES: Table 9A: selected HLA-A*24-binding tumor-associated peptides, cancer entities on which the peptide was found presented
[2] = tested on: source genes of selected peptides; experiment: Expression profiling of source genes by in-house RNAseq, tumor vs normal tissues (target coverage); settings: for Target coverage, over-expression of source gene, AML: AML (N = 7); for Target coverage, over-expression of source gene, AML / Target coverage, over-expression of source gene, BRCA / Target coverage, over-expression of source gene, CLL / Target coverage, over-expression of source gene, CRC / Target coverage, over-expression of source gene, GB / Target coverage, over-expression of source gene, HCC / Target coverage, over-expression of source gene, OC / Target coverage, over-expression of source gene, OSCAR / Target coverage, over-expression of source gene, PC / Target coverage, over-expression of source gene, RCC / Target coverage, over-expression of source gene, SCLC / Target coverage, over-expression of source gene, pNSCLC: share of tumors with more than 1.5-fold higher expression than highest relevant normal tissue, in-house RNASeq; for Target coverage, over-expression of source gene, BRCA: BRCA (N = 10); for Target coverage, over-expression of source gene, CLL: CLL (N = 10); for Target coverage, over-expression of source gene, CRC: CRC (N = 20); for Target coverage, over-expression of source gene, GB: GB (N = 24); for Target coverage, over-expression of source gene, HCC: HCC (N = 15); for Target coverage, over-expression of source gene, OC: OC (N = 12); for Target coverage, over-expression of source gene, OSCAR: OSCAR (N = 11); for Target coverage, over-expression of source gene, PC: PC (N = 26); for Target coverage, over-expression of source gene, RCC: RCC (N = 10); for Target coverage, over-expression of source gene, SCLC: SCLC (N = 10); for Target coverage, over-expression of source gene, pNSCLC: pNSCLC (N = 11); for Target coverage for source genes of selected peptides, GBC_CCC (N = 10): gallbladder adenocarcinoma and cholangiocarcinoma; for Target coverage for source genes of selected peptides, GBC_CCC (N = 10) / Target coverage for source genes of selected peptides, GC (N = 11) / Target coverage for source genes of selected peptides, HNSCC (N = 10) / Target coverage for source genes of selected peptides, MEL (N = 10) / Target coverage for source genes of selected peptides, NHL (N = 10) / Target coverage for source genes of selected peptides, PCA (n = 10) / Target coverage for source genes of selected peptides, UBC (N = 10) / Target coverage for source genes of selected peptides, UTC (N = 10): share of tumors with more than 1.5-fold higher expression than the highest-expressing relevant normal tissue, in-house RNAseq; for Target coverage for source genes of selected peptides, GC (N = 11): gastric cancer; for Target coverage for source genes of selected peptides, HNSCC (N = 10): head and neck small cell carcinoma; for Target coverage for source genes of selected peptides, MEL (N = 10): melanoma; for Target coverage for source genes of selected peptides, NHL (N = 10): non-Hodgkin lymphoma; for Target coverage for source genes of selected peptides, PCA (n = 10): prostate cancer and benign prostate hyperplasia; for Target coverage for source genes of selected peptides, UBC (N = 10): urinary bladder cancer; for Target coverage for source genes of selected peptides, UTC (N = 10): uterine cancer
[3] = tested on: source genes of selected peptides; experiment: Target coverage of source genes in tumor entities based on TCGA Research Network data; settings: over-expressed = more than 2-fold above the highest 75% percentile of normal organs; for Target coverage, over-expression category of source gene, BLCA (N = 408): Bladder urothelial carcinoma; for Target coverage, over-expression category of source gene, CESC (N = 307): Cervical squamous cell carcinoma and endocervical adenocarcinoma; for Target coverage, over-expression category of source gene, HNSC (N = 521): Head and neck squamous cell carcinoma; for Target coverage, over-expression category of source gene, DLBC (N = 48): Lymphoid neoplasm diffuse large B-cell lymphoma

Substance: 314: peptide found in ITPR2 (gene looked up) (RYFKGDYSI; listed as Homo sapiens) [compound 314]
- ENTITIES [1]: GB, HCC
- Target coverage, over-expression of source gene, AML [2]: I (<19% over-expression = I)
- Target coverage, over-expression of source gene, BRCA [2]: I (<19% over-expression = I)
- Target coverage, over-expression of source gene, CLL [2]: I (<19% over-expression = I)
- Target coverage, over-expression of source gene, CRC [2]: I (<19% over-expression = I)
- Target coverage, over-expression of source gene, GB [2]: II (20-49% = II)
- Target coverage, over-expression of source gene, HCC [2]: I (<19% over-expression = I)
- Target coverage, over-expression of source gene, OC [2]: I (<19% over-expression = I)
- Target coverage, over-expression of source gene, OSCAR [2]: I (<19% over-expression = I)
- Target coverage, over-expression of source gene, PC [2]: I (<19% over-expression = I)
- Target coverage, over-expression of source gene, RCC [2]: I (<19% over-expression = I)
- Target coverage, over-expression of source gene, SCLC [2]: I (<19% over-expression = I)
- Target coverage, over-expression of source gene, pNSCLC [2]: I (<19% over-expression = I)
- Target coverage, over-expression category of source gene, KICH (N = 66) ([3]; Kidney chromophobe): B (>=20% of tumors above the cutoff, but <50%)

Substance: 320: peptide found in AURKA (gene looked up) (KFILALKVLF; listed as Homo sapiens) [compound 320]
- ENTITIES [1]: HCC, NSCLC
- Target coverage, over-expression of source gene, AML [2]: I (<19% over-expression = I)
- Target coverage, over-expression of source gene, BRCA [2]: I (<19% over-expression = I)
- Target coverage, over-expression of source gene, CLL [2]: I (<19% over-expression = I)
- Target coverage, over-expression of source gene, CRC [2]: I (<19% over-expression = I)
- Target coverage, over-expression of source gene, GB [2]: I (<19% over-expression = I)
- Target coverage, over-expression of source gene, HCC [2]: I (<19% over-expression = I)
- Target coverage, over-expression of source gene, OC [2]: I (<19% over-expression = I)
- Target coverage, over-expression of source gene, OSCAR [2]: I (<19% over-expression = I)
- Target coverage, over-expression of source gene, PC [2]: I (<19% over-expression = I)
- Target coverage, over-expression of source gene, RCC [2]: I (<19% over-expression = I)
- Target coverage, over-expression of source gene, SCLC [2]: II (20-49% = II)
- Target coverage, over-expression of source gene, pNSCLC [2]: I (<19% over-expression = I)
- Target coverage, over-expression category of source gene, ACC (N = 79) ([3]; Adrenocortical carcinoma): C (>=5% of tumors above the cutoff, but <20%)
- Target coverage, over-expression category of source gene, BLCA (N = 408) [3]: B (>=20% of tumors above the cutoff, but <50%)
- Target coverage, over-expression category of source gene, CESC (N = 307) [3]: B (>=20% of tumors above the cutoff, but <50%)
- Target coverage, over-expression category of source gene, HNSC (N = 521) [3]: B (>=20% of tumors above the cutoff, but <50%)
- Target coverage, over-expression category of source gene, DLBC (N = 48) [3]: B (>=20% of tumors above the cutoff, but <50%)

Substance: 342: peptide found in APOBEC3B (gene looked up) (NYAFLHRTL; listed as Homo sapiens) [compound 342]
- Peptide Presentation on cancer entities ([1]; Table 9B: selected HLA-A*24 peptides, presentation on additional cancer entities): NSCLC
- Target coverage, over-expression of source gene, AML [2]: II (20-49% = II)
- Target coverage, over-expression of source gene, BRCA [2]: I (<19% over-expression = I)
- Target coverage, over-expression of source gene, CLL [2]: I (<19% over-expression = I)
- Target coverage, over-expression of source gene, CRC [2]: I (<19% over-expression = I)
- Target coverage, over-expression of source gene, GB [2]: I (<19% over-expression = I)
- Target coverage, over-expression of source gene, HCC [2]: I (<19% over-expression = I)
- Target coverage, over-expression of source gene, OC [2]: II (20-49% = II)
- Target coverage, over-expression of source gene, OSCAR [2]: III (50-69% = III)
- Target coverage, over-expression of source gene, PC [2]: I (<19% over-expression = I)
- Target coverage, over-expression of source gene, RCC [2]: I (<19% over-expression = I)
- Target coverage, over-expression of source gene, SCLC [2]: I (<19% over-expression = I)
- Target coverage for source genes of selected peptides, GBC_CCC (N = 10) [2]: I (<19% over-expression = I)
- Target coverage for source genes of selected peptides, GC (N = 11) [2]: I (<19% over-expression = I)
- Target coverage for source genes of selected peptides, HNSCC (N = 10) [2]: I (<19% over-expression = I)
- Target coverage for source genes of selected peptides, MEL (N = 10) [2]: I (<19% over-expression = I)
- Target coverage for source genes of selected peptides, NHL (N = 10) [2]: I (<19% over-expression = I)
- Target coverage, over-expression of source gene, pNSCLC [2]: I (<19% over-expression = I)
- Target coverage for source genes of selected peptides, PCA (n = 10) [2]: I (<19% over-expression = I)
- Target coverage for source genes of selected peptides, UBC (N = 10) [2]: II (20-49% = II)
- Target coverage for source genes of selected peptides, UTC (N = 10) [2]: I (<19% over-expression = I)
- Target coverage, over-expression category of source gene, BLCA (N = 408) [3]: C (>=5% of tumors above the cutoff, but <20%)
- Target coverage, over-expression category of source gene, CESC (N = 307) [3]: C (>=5% of tumors above the cutoff, but <20%)
- Target coverage, over-expression category of source gene, HNSC (N = 521) [3]: C (>=5% of tumors above the cutoff, but <20%)
- Target coverage, over-expression category of source gene, DLBC (N = 48) [3]: C (>=5% of tumors above the cutoff, but <20%)

Substance: 343: peptide found in AR (gene looked up) (NYLGGTSTI; listed as Homo sapiens) [compound 343]
- ENTITIES [1]: PCA, HCC, GB
- Target coverage, over-expression of source gene, AML [2]: I (<19% over-expression = I)
- Target coverage, over-expression of source gene, BRCA [2]: II (20-49% = II)
- Target coverage, over-expression of source gene, CLL [2]: I (<19% over-expression = I)
- Target coverage, over-expression of source gene, CRC [2]: I (<19% over-expression = I)
- Target coverage, over-expression of source gene, GB [2]: I (<19% over-expression = I)
- Target coverage, over-expression of source gene, HCC [2]: II (20-49% = II)
- Target coverage, over-expression of source gene, OC [2]: I (<19% over-expression = I)
- Target coverage, over-expression of source gene, OSCAR [2]: I (<19% over-expression = I)
- Target coverage, over-expression of source gene, RCC [2]: I (<19% over-expression = I)
- Target coverage, over-expression of source gene, SCLC [2]: II (20-49% = II)
- Target coverage for source genes of selected peptides, GBC_CCC (N = 10) [2]: I (<19% over-expression = I)
- Target coverage for source genes of selected peptides, GC (N = 11) [2]: I (<19% over-expression = I)
- Target coverage for source genes of selected peptides, HNSCC (N = 10) [2]: I (<19% over-expression = I)
- Target coverage for source genes of selected peptides, MEL (N = 10) [2]: I (<19% over-expression = I)
- Target coverage for source genes of selected peptides, NHL (N = 10) [2]: I (<19% over-expression = I)
- Target coverage, over-expression of source gene, pNSCLC [2]: I (<19% over-expression = I)
- Target coverage for source genes of selected peptides, PCA (n = 10) [2]: IV (>70% = IV)
- Target coverage for source genes of selected peptides, UBC (N = 10) [2]: I (<19% over-expression = I)
- Target coverage for source genes of selected peptides, UTC (N = 10) [2]: II (20-49% = II)
- Target coverage, over-expression category of source gene, KIRP (N = 291) ([3]; Kidney renal papillary cell carcinoma): C (>=5% of tumors above the cutoff, but <20%)

For part of these data: Expression values are those of the mRNA of the gene that encodes the peptide; a gene is named only where it was looked up.
